# Measured values: the supplement of paper PMC4635364
# Counter-ions that a name gives are not always drawn. The list shows a part of the results. Single values are uncertain here, since repeats match poorly.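 Cells: ReNCell VM human fetal ventral-midbrain neural progenitors, differentiated mitogen-free. Blinded raters compared doublecortin-stained (early neurons) or tyrosine hydroxylase-stained (dopaminergic neurons) images with untreated wells, where 0 means no change. After repeats and both raters were averaged, compounds scoring 2 or above became hits for retesting.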
# Tests used:
# ReNCell VM [1] = experiment: neuronal differentiation score (DCX+ cell fraction vs untreated, manual image score) (score (-3 to 3)); higher = more neuronal differentiation; conditions: 2 uM, 2 weeks
# ReNCell VM [2] = experiment: dopaminergic neuron differentiation score (TH+ cell fraction vs untreated, manual image score) (score (0 to 3)); higher = more TH+ dopaminergic neuron differentiation; conditions: 2 uM, 4 weeks, BDNF 10 ng/ml + GDNF 10 ng/ml
smiles,measurement,setting,value
COc1ccccc1CNCCCCCCNCCCCCCCCNCCCCCCNCc1ccccc1OC [Methoctramine tetrahydrochloride],neuronal differentiation score,ReNCell VM [1]; library: LOPAC,inactive: 0
same,dopaminergic neuron differentiation score,ReNCell VM [2]; library: LOPAC,inactive: 0
CC1Nc2ccc(Cl)cc2S(=O)(=O)N1 (centres undefined),neuronal differentiation score,ReNCell VM [1]; library: Tocriscreen,inactive: -1
same,dopaminergic neuron differentiation score,ReNCell VM [2]; library: Tocriscreen,inactive: 0
COC(=O)[C@@H]1CC2=CC(=O)CC[C@]2(C)[C@@]23O[C@@H]2C[C@@]2(C)[C@@H](CC[C@@]24CCC(=O)O4)[C@H]13 [Eplerenone],neuronal differentiation score,ReNCell VM [1]; library: Tocriscreen,inactive: 0
same,dopaminergic neuron differentiation score,ReNCell VM [2]; library: Tocriscreen,inactive: 0
CCC[C@@H]1C[C@@H](C(=O)N[C@@H]([C@H]2O[C@H](SC)[C@H](O)[C@@H](O)[C@H]2O)[C@H](C)Cl)N(C)C1 [Clindamycin hydrochloride],neuronal differentiation score,ReNCell VM [1]; library: Prestwick,inactive: 0
same,dopaminergic neuron differentiation score,ReNCell VM [2]; library: Prestwick,inactive: 0
CCCCCCN(CCCCCC)C(=O)Cc1c(-c2ccc(F)cc2)[nH]c2ccccc12,neuronal differentiation score,ReNCell VM [1]; library: Tocriscreen,inactive: 0
same,dopaminergic neuron differentiation score,ReNCell VM [2]; library: Tocriscreen,inactive: 0
COc1cc2ncnc(Nc3ccc(F)c(Cl)c3)c2cc1OCCCN1CCOCC1 [Gefitinib],neuronal differentiation score,ReNCell VM [1]; library: Prestwick,inactive: -1
same,dopaminergic neuron differentiation score,ReNCell VM [2]; library: Prestwick,inactive: 0
"c1ccc(C2CN3CCSC3=N2)cc1 (single isomer, unassigned; (-)) [(-)-Tetramisole hydrochloride]",neuronal differentiation score,ReNCell VM [1]; library: LOPAC,inactive: 0
same,dopaminergic neuron differentiation score,ReNCell VM [2]; library: LOPAC,inactive: 0
COc1cc(C(=O)NCCCCCC(=O)O)cc(OC)c1OC,neuronal differentiation score,ReNCell VM [1]; library: Spectrum,inactive: 0
same,dopaminergic neuron differentiation score,ReNCell VM [2]; library: Spectrum,inactive: 0
CC(C)NCC(O)COc1ccc(CC(N)=O)cc1 (racemic) [(RS)-Atenolol],neuronal differentiation score,ReNCell VM [1]; library: Tocriscreen,inactive: 0
same,dopaminergic neuron differentiation score,ReNCell VM [2]; library: Tocriscreen,inactive: 0
CNCCc1ccccn1 [Betahistine mesylate],neuronal differentiation score,ReNCell VM [1]; library: Prestwick,inactive: 0
same,dopaminergic neuron differentiation score,ReNCell VM [2]; library: Prestwick,inactive: 0
COc1ccc([C@H]2COc3c(ccc(O)c3OC)C2)c(OC)c1O,neuronal differentiation score,ReNCell VM [1]; library: Spectrum,inactive: 0
same,dopaminergic neuron differentiation score,ReNCell VM [2]; library: Spectrum,inactive: 0
CN(CCOc1ccc(CC2SC(=O)NC2=O)cc1)c1ccccn1 (centres undefined),neuronal differentiation score,ReNCell VM [1]; library: Spectrum,inactive: 0
same,dopaminergic neuron differentiation score,ReNCell VM [2]; library: Spectrum,inactive: 0
CN(C(=O)C(Cl)Cl)c1ccc(OC(=O)c2ccco2)cc1,neuronal differentiation score,ReNCell VM [1]; library: Spectrum,inactive: 0
same,dopaminergic neuron differentiation score,ReNCell VM [2]; library: Spectrum,inactive: 0
COc1ccc2c(=O)c(OC)c(-c3ccccc3)oc2c1,neuronal differentiation score,ReNCell VM [1]; library: Spectrum,inactive: 0
same,dopaminergic neuron differentiation score,ReNCell VM [2]; library: Spectrum,inactive: 0
"C[C@]12CCC(=O)C=C1CC[C@H]1[C@@H]3CC[C@](O)(C(=O)CO)[C@@]3(C)C[C@@H]3OC312 (stereo in doubt) [17,21-dihydroxy-9,11-epoxy-pregn-4-ene-3,20-dione]",neuronal differentiation score,ReNCell VM [1]; library: Natural,inactive: 1
same,dopaminergic neuron differentiation score,ReNCell VM [2]; library: Natural,inactive: 0
CC(C(=O)O)c1ccc(CC2CCCC2=O)cc1 (centres undefined),neuronal differentiation score,ReNCell VM [1]; library: Spectrum,inactive: 0
same,dopaminergic neuron differentiation score,ReNCell VM [2]; library: Spectrum,inactive: 0
CCCC(CCC)C(=O)O,neuronal differentiation score,ReNCell VM [1]; library: Spectrum,inactive: 0
same,dopaminergic neuron differentiation score,ReNCell VM [2]; library: Spectrum,inactive: 0
O=C(O)CN(CCOCCOCCN(CC(=O)O)CC(=O)O)CC(=O)O,neuronal differentiation score,ReNCell VM [1]; library: LOPAC,inactive: 1
same,dopaminergic neuron differentiation score,ReNCell VM [2]; library: LOPAC,inactive: 0
N[C@H]1CONC1=O,neuronal differentiation score,ReNCell VM [1]; library: Spectrum,inactive: 0
same,dopaminergic neuron differentiation score,ReNCell VM [2]; library: Spectrum,inactive: 0
CC1CC(OC(=O)C(O)c2ccccc2)CC(C)(C)N1C (centres undefined),neuronal differentiation score,ReNCell VM [1]; library: Spectrum,inactive: 0
same,dopaminergic neuron differentiation score,ReNCell VM [2]; library: Spectrum,inactive: 0
CC(C)(O/N=C(\C(=O)N[C@@H]1C(=O)N2C(C(=O)[O-])=C(C[n+]3ccccc3)CS[C@H]12)c1csc(N)n1)C(=O)O [Ceftazidime pentahydrate],neuronal differentiation score,ReNCell VM [1]; library: Prestwick,inactive: 0
same,dopaminergic neuron differentiation score,ReNCell VM [2]; library: Prestwick,inactive: 0
O=C(O)/C=C/c1cnc[nH]1 [4-Imidazoleacrylic acid],neuronal differentiation score,ReNCell VM [1]; library: LOPAC,inactive: 0
same,dopaminergic neuron differentiation score,ReNCell VM [2]; library: LOPAC,inactive: 0
N=C(N)N,neuronal differentiation score,ReNCell VM [1]; library: Spectrum,inactive: 0
same,dopaminergic neuron differentiation score,ReNCell VM [2]; library: Spectrum,inactive: 0
CC(C)CCC[C@@H](C)[C@H]1CC[C@H]2[C@@H]3CC(=O)[C@H]4C[C@@H](O)CC[C@]4(C)[C@H]3CC[C@]12C [5alpha-CHOLESTAN-3beta-OL-6-ONE],neuronal differentiation score,ReNCell VM [1]; library: Spectrum,inactive: 0
same,dopaminergic neuron differentiation score,ReNCell VM [2]; library: Spectrum,inactive: 0
Cc1nc2n(c(=O)c1CCN1CCC(c3noc4cc(F)ccc34)CC1)CCCC2,neuronal differentiation score,ReNCell VM [1]; library: Spectrum,inactive: 0
same,dopaminergic neuron differentiation score,ReNCell VM [2]; library: Spectrum,inactive: 0
S=C(S)N1CCCC1 [Ammonium pyrrolidinedithiocarbamate],neuronal differentiation score,ReNCell VM [1]; library: LOPAC,inactive: 0
same,dopaminergic neuron differentiation score,ReNCell VM [2]; library: LOPAC,inactive: 0
C(=C\c1ccccc1)/CN1CCN(C(c2ccccc2)c2ccccc2)CC1,neuronal differentiation score,ReNCell VM [1]; library: Spectrum,inactive: 0
same,dopaminergic neuron differentiation score,ReNCell VM [2]; library: Spectrum,inactive: 0
CC(=O)Nc1ncc([N+](=O)[O-])s1,neuronal differentiation score,ReNCell VM [1]; library: Spectrum,inactive: 0
same,dopaminergic neuron differentiation score,ReNCell VM [2]; library: Spectrum,inactive: 0
CCCCOc1cc(C(=O)NCCN(CC)CC)c2ccccc2n1,neuronal differentiation score,ReNCell VM [1]; library: Spectrum,inactive: 0
same,dopaminergic neuron differentiation score,ReNCell VM [2]; library: Spectrum,inactive: 1
CCOC(=S)SSC(=S)OCC,neuronal differentiation score,ReNCell VM [1]; library: Spectrum,inactive: 0
same,dopaminergic neuron differentiation score,ReNCell VM [2]; library: Spectrum,inactive: 0
C=C1C[C@H]2[C@@H]3C=C(C)C4=CC(=O)CC[C@]4(C)[C@H]3CC[C@]2(C)[C@@]1(OC(C)=O)C(C)=O [Melengestrol acetate],neuronal differentiation score,ReNCell VM [1]; library: Prestwick,inactive: 0
same,dopaminergic neuron differentiation score,ReNCell VM [2]; library: Prestwick,inactive: 0
O=C1CN(/N=C/c2ccc([N+](=O)[O-])o2)C(=O)N1,neuronal differentiation score,ReNCell VM [1]; library: Spectrum,inactive: 0
same,dopaminergic neuron differentiation score,ReNCell VM [2]; library: Spectrum,inactive: 0

# Rewritten tab-delimited: entries from further up.
smiles	measurement	setting	value
CCC[C@@H]1C[C@@H](C(=O)N[C@@H]([C@H]2O[C@H](SC)[C@H](O)[C@@H](O)[C@H]2O)[C@H](C)Cl)N(C)C1 [Clindamycin hydrochloride]	neuronal differentiation score	ReNCell VM [1]; library: Prestwick	inactive: 0
N=C(N)N	neuronal differentiation score	ReNCell VM [1]; library: Spectrum	inactive: 0
